## Primary screen of a compound library

Source: ChEMBL document CHEMBL3988442, “University of Dundee, Small-Polar-MMV Screening Library” (2021).

Values are the deposited “Percent Effect”, in %. How 0% and 100% were set is not recorded. Most values in the screen are low, and negative values occur. This is an unselected part of the compounds tested.

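Assay of Toxoplasma gondii numbers, read through their beta-galactosidase reporter with a colour substrate. Concentration: 50 µM. The record gives no direction; the compounds picked for IC50 retests had high values, so higher reads as fewer parasites. Size under these conditions: about 18,000 compounds, about 170 of them at 50% or above in at least one test.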

CNCC1(O)CCc2ccccc21 (stereo unspecified) read -1.976%.
O=C(CCC(=O)c1ccc(F)cc1)NCc1ccco1 read -3.533%.
NCC(O)CS(=O)(=O)c1cccs1 (stereo unspecified) read -11.09%.
O=C(NC1CCSCC1)c1csc(NC2CC2)n1 read 0.6112%.
CCSc1nnc(-c2nonc2NC(C)=O)n1CC read 11.23%.
NC1CCCN(c2cccnc2)C1=O (stereo unspecified) read -45.36%.
COCCN1CCN(c2ccc(OC)cc2)CC1 read -4.401%.
Cc1noc(C)c1CCC(=O)NCC1CCS(=O)(=O)C1 (stereo unspecified) read 11.31%.
Cc1n[nH]c(C)c1S(=O)(=O)N1CCN(C)CC1 read -2.17%.
CC1(C#N)CCN(C(=O)CCc2cccc(O)c2)CC1 read -5.274%.
O=S(=O)(c1ccc(CN2CCC[C@H]2CO)cc1)C(F)F read -1.944%.
COC(=O)CN1CCCC(c2ncc[nH]2)C1 (stereo unspecified) read -3.393%.
COC(=O)C1=C(C)NC(=O)/C1=C\c1ccccc1 read 10.89%.
COc1ccc(C(C(N)=O)N2CCOCC2)cc1 (stereo unspecified) read 16.57%.
Cc1cnc(C)c(N2CCN(Cc3ncc[nH]3)CC2)n1 read 18.97%.
COCCn1c(SCC(=O)NC2CC2)nc(C)c1C read 1.348%.
CC(O)C(=O)NC(N)=O (stereo unspecified) read -8.539%.
CSCc1noc(CN2CCCC2c2nc(C)n[nH]2)n1 (stereo unspecified) read 6.617%.
Cn1nccc1C(=O)N[C@@H]1COCC[C@@H]1OCC(N)=O read -8.453%.
COCCNC(=O)CCNS(=O)(=O)c1ccccc1 read -9.639%.
Cc1ccccc1-c1nc(CNC(C)(CO)CO)no1 read 17.52%.
C=C(C)CNC(=O)NCCn1c(=O)oc2ccccc21 read 28.41%.
NCc1cccc(OCC(F)F)n1 read -0.5228%.
CCCOC1CCCN(C(=O)CSc2nc(C)n[nH]2)C1 (stereo unspecified) read -8.533%.
CC(C)(CNC(=O)CC1=CCCCC1)S(C)(=O)=O read 1.996%.
N#CC[C@@H](N)c1ccccc1 read -6.546%.
CNCC(C)(C)CO read -7.668%.
N#Cc1cccc(CNc2ccc(OCCO)nc2)c1 read -1.395%.
CCC(=O)N1CSCC1C(=O)Nc1ccc(Br)cn1 (stereo unspecified) read -3.294%.
COc1ccc(C(O)CN)cc1 (stereo unspecified) read 5.53%.
N#CCOc1ccc(CN)cc1 read -2.402%.
CCC(=O)NCC(c1ccsc1)N(C)C (stereo unspecified) read -10.02%.
NC(=O)CC1CCN(C(=O)c2cncc(Br)c2)CC1 read -0.2326%.
CCc1nnc(CNC(=O)c2nnc(C(C)C)s2)o1 read 1.548%.
Cc1cccc(NCC2CCN(CCS(C)(=O)=O)C2)n1 (stereo unspecified) read -4.926%.
CCn1nc(C)c(CO)c1C read -15.9%.
CCc1ncc(C(=O)NCCNc2ncccn2)s1 read -28.73%.
O=C(Cn1ccccc1=O)Nc1nc2c(s1)CCC2 read -15.46%.
CC(C)C(=O)CNC(=O)c1cc(Cl)cn1C read 14.29%.
N[C@H]1CN(S(=O)(=O)c2cccc(F)c2)C[C@@H]1C1CC1 read 2.474%.
CC1CC(=O)N(CCc2ccc(F)c(F)c2)C1=O (stereo unspecified) read 3.605%.
c1cn(C2CCNC2)nn1 (stereo unspecified) read -13.42%.
CCNC(=O)C1(CN)CCC1 read 1.136%.

Some entries from above, unchanged:

{"compound": "Cc1ccccc1-c1nc(CNC(C)(CO)CO)no1", "Percent Effect": 17.52}
{"compound": "COCCNC(=O)CCNS(=O)(=O)c1ccccc1", "Percent Effect": -9.639}
{"compound": "CC(C)C(=O)CNC(=O)c1cc(Cl)cn1C", "Percent Effect": 14.29}
{"compound": "Cn1nccc1C(=O)N[C@@H]1COCC[C@@H]1OCC(N)=O", "Percent Effect": -8.453}